“And” between values parts separate entries of the source, which are not always exact repeats. Equal entries are not always repeated. The list shows a part of the results. Repeats in this data set agree poorly, so a single value says little.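 HEK293T cells were given each compound shortly before transfection with a reporter in which red mCherry is followed by the SARS-CoV-2 frameshift element and then GFP in the −1 frame, so GFP appears only after frameshifting.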
Each compound was assayed on HEK293T (assay: percent viability (nuclei count) relative to control; higher = more viable cells). Settings: 10 µM; 24 h.

| Structure (SMILES) | percent viability |
| --- | --- |
| COc1cc(NS(=O)(=O)c2ccc(N)cc2)ncn1 [sulfamonomethoxine] | 228% |
| CCOC(=O)/C=C(C)/C=C/C=C(C)/C=C/c1c(C)cc(OC)c(C)c1C [Etretinate] | 269% |
| NC(N)=Nc1nc(CSCC/C(N)=N/S(N)(=O)=O)cs1 [famotidine] | 37.3% and 61.6% |
| O=C(c1cc(Cc2n[nH]c(=O)c3ccccc23)ccc1F)N1CCN(C(=O)C2CC2)CC1 [Olaparib] | 243% |

Reference: the supplement of paper PMC8256030
